Laboratory results: US11771779B2, “Non-metallic magnetic resonance contrast agent” (HADASIT MEDICAL RESEARCH SERVICES & DEVELOPMENT LIMITED, priority 2018, dated 2023)

Experiments:
[1] = for time hyperpolarized signal observed: co-polarized nitrate 29 mM and nitrite 47 mM in D2O, 37-42° C., FIG. 4A
Excerpt: The dissolution process is detailed in the results section. […] Unless otherwise stated, the dissolved hyperpolarized solution was directly injected to a screw cup 10 mm NMR tube in a 5.8T NMR spectrometer via a PTFE line of about 2.4 m length with 3 s of He(g) chase. This line was wrapped with a heating tape (MRC, Holon, Israel) that enabled control over the temperature of the dissolution medium arriving to the NMR tube directly or to a collection tube in the fringe field of the spectrometer. ^15N-Nuclear Magnetic Resonance (NMR) spectra were continuously recorded immediately at the start of the dissolution process. […] In the experiments in body fluids and in experiments in which the hyperpolarized solution was first cooled to temperatures below room temperature, the dissolution media was first collected in a conical tube placed in the spectrometer's fringe field, and then was injected by syringe via a PEEK line to the NMR tube that was placed in the magnet.
For heating this hyperpolarized solution prior to arrival to the NMR tube, the PTFE line leading the hyperpolarized solution out of the spin polarization device was wrapped with a heating tape connected to a temperature controller (MRC, Holon, Israel). In this way, hyperpolarized solutions at temperatures higher than 26° C. could be obtained. For cooling the hyperpolarized solution, the heating tape was not turned on and the dissolution medium was mixed with 0 to 4 mL of D2O at 2° C. in a collection tube placed in ice-water bath in the fringe field of the magnet, prior to injection.
^15N-NMR spectroscopy was performed in a 5.8T NMR spectrometer (RS2D, Mundolsheim, France), using a 10 mm broad-band NMR probe. The chemical shift scale of the spectra presented herein was calibrated based on a separate measurement of a [^15N2]urea standard sample (4M in H2O:D2O 80:20), carried out prior to hyperpolarized ^15N acquisitions, calibrating the [^15N2]urea signal to −306 ppm (relative to nitromethane). For enhancement factor calculation, the spectra were collected with a high flip angle of […] and a repetition time of 2 s. For T1 calculation, the spectra were acquired with a low flip angle of […] and a longer repetition time of 5-10 s.
The temperature in the NMR tube was continuously monitored using an NMR compatible temperature probe (Osensa, Burnaby, BC, Canada).
Determination of the T1 of the hyperpolarized sites was performed by curve fitting of the signal decay to the following equation: S(t)=S0·e^−t/T^1·(cos θ)^t/TR, in which TR, the time between excitations, and θ, the nutation angle of excitation, are known. Curve fitting was performed using Matlab (Mathworks, Natick, Mass., USA).

[2] = Procedure: The small amounts of hyperpolarized solution were added to the blood sample at 0, 3, 6, 7.25, and 9.17 min from arrival of the solution to the collection tube.

In the case of `O=[15N][O-].[Na+]` [[^15N]nitrite, sodium [^15N]nitrite], the “time hyperpolarized signal observed” value [1] is reported as 55 s.

For `O=[15N+]([O-])[O-].[Na+]` [[^15N]nitrate, sodium [^15N]nitrate], the “time signal observed in blood” value ([2]; injection 1 (0 min; solution 16.4° C.)) was 2.9 min, the “time signal observed in blood” value ([2]; injection 2 (3 min; solution 5.8° C.)) was 2.2 min and the “time signal observed in blood” value ([2]; injection 3 (6 min; solution 2.9° C.)) was 1.0 min. For the same molecule, the “time signal observed in blood” value ([2]; injection 4 (7.25 min; solution 2.1° C.)) was 0.6 min, the “visibility of hyperpolarized signal in blood” value ([2]; multiple injections from a single dose stored in ice-water bath) was “up to 9 min” and the “time signal observed in blood” value ([2]; previous single injection to blood (FIG. 4E)) was 4 min. The “time hyperpolarized state observed” value ([1]; D2O, 5.8 T, FIG. 3A) was “about 10 min”, the “time hyperpolarized signal observed” value [1] was “more than 500 s” and the “time ^15N signal visible” value ([1]; physiological saline, 38° C., 5.8 T, pulse every 8 s) was “about 8 min”.

Where two headings read alike, the source gives them in different places.
